According to patent US20230203485A1, “METHODS FOR MODULATING MHC-I EXPRESSION AND IMMUNOTHERAPY USES THEREOF” (Dana-Farber Cancer Institute, Inc., priority 2020, published 2023):
The source gives many values for each of these; only a part stands here.

Tested on: class I antigen presentation gene expression in MCC cell lines
Test: RNA-seq / DESeq2 differential expression of MCC cell lines at baseline and after IFN-γ stimulation
Format: cell-based, human
Conditions: 11 MCC cell lines, baseline vs IFNγ, negative LFC = upregulation in IFNγ-treated
Description: FIG. 2A comprises RNA-seq heatmaps of class I antigen presentation gene expression in MCC lines and controls.
FIG. 2B is a volcano plot of differentially expressed genes (genes below FDR cutoff 0.01 are shown in yellow) between baseline and IFN-γ-treated MCC cell lines. Differential expression analysis was performed using DESeq2, and negative LFC indicates increased expression in +IFN-γ samples. IFN genes are highlighted in red.
RNA samples were first assessed for quality using the Agilent Bioanalyzer (DV200 metric). One hundred ng of RNA were used as the input for first strand cDNA synthesis using Superscript III reverse transcriptase and Illumina's TruSeq RNA Access Sample Prep Kit. Synthesis of the second strand of cDNA was followed by indexed adapter ligation with UMI (unique molecular index) adaptors. Subsequent PCR amplification enriched for adapted fragments. Amplified libraries were quantified, normalized, pooled, and hybridized with exome targeting oligos. Following hybridization, bead clean-up, elution and PCR was performed to prepare library pools for sequencing on Illumina flowcell lanes. Transcriptomes were sequenced to a coverage of at least 50 million reads in pairs.
Raw fastq files for fibroblast and keratinocyte control lines were downloaded from SRA using R Bioconductor package SRAdb (Mayakonda et al. (2018) supra; Zhu et al. (2013) BMC Bioinformatics 14 (1): 1-4) using accession codes SRP126422 (4 replicates from control samples ‘NN’) and SRP131347 (6 replicates with condition: control and genotype: control). These fastq files, along with those for the mkl1 and waga cell lines, were aligned using STAR version 2.7.3a (Dobin et al. (2013) Bioinformatics 29 (1): 15-21), using index genome reference file downloaded from ftp.ebi.ac.uk/pub/databases/gencode/Gencode_human/release_19/GRCh37.p13.genome.fa.gz, transcript annotation file downloaded from data.broadinstitute.org/snowman/hg19/star/gencode.v19.annotation.gtf, and with the following options: --twopassMode Basic, --outSAMstrandField intronMotif, --alignIntronMax 1000000, --alignMatesGapMax 1000000, --sjdbScore 2, --outSAMtype BAM Unsorted, --outSAMattributes NH HI NM MD AS XS, --outFilterType BySJout, --outSAMunmapped Within, --genomeLoad NoSharedMemory, --outFilterScoreMinOverLread 0, --outFilterMatchNminOverLread 0, --outFilterMismatchNmax 999, and outFilterMultimapNmax 20. Duplicates were marked with picard MarkDuplicates version 2.22.0-SNAPSHOT.
RNA-sequencing bam files for MCC tumor and cell line samples were downloaded from the Broad Genomics Firecloud/Terra platform using the Google Cloud Storage command line tool gsutil version 4.5 (github.com/GoogleCloudPlatform/gsutil/).
Gene counts were obtained from bam files using featureCounts version 2.0.0 (doi.org/10.1093/bioinformatics/btt656). Very lowly expressed genes with average count across samples less than 1 were excluded from analysis. Between-sample distance metrics were computed using the Euclidean distance on the vectors of variance-stabilized counts obtained from the vst function in the DESeq2 R Bioconductor package ([…]; Love et al. (2014) Genome Biology 15 (12): 550).
Differential expression analysis was carried out between (1) viral positive and viral negative samples (adjusting for cell line or tumor as a covariate), (2) cell line and tumor samples (adjusting for viral status as a covariate), and (3) IFNγ plus and minus samples (adjusting for viral status as a covariate) using the negative binomial GLM Wald test of DESeq2, where significance was assessed using the p-values adjusted for multiple comparisons under default settings. To account for potential global gene expression differences among sample groups, RUVg (Risso et al. (2014) […] 32 (9): 896-902) was used to estimate latent factors of unwanted variation from the list of housekeeping genes downloaded from www.tau.ac.il/˜elieis/HKG/HK_genes.txt. […]

B1: IFN-y: type II interferon, recombinant human, used to treat MCC cells (protein, UniProt P01579 24-161, looked up)
Interferon gamma: QDPYVKEAENLKKYFNAGHSDVADNGTLFLGILKNWKEESDRKIMQSQIVSFYFKLFKNFKDDQSIQKSVETIKEDMNVKFFNSNKKKRDDFEKLTNYSVTDLNVQRKAIHELIQVMAELSPAAKTGKRKRSQMLFRG
log2FoldChange (APOBEC3B ENSG00000179750.11): −3.14 | log2FoldChange (APOBEC3D ENSG00000243811.3): −4.463 | log2FoldChange (APOBEC3F ENSG00000128394.12): −4.302 | log2FoldChange (APOBEC3G ENSG00000239713.3): −5.079 | log2FoldChange (APOL1 ENSG00000100342.16): −10.56 | log2FoldChange (APOL2 ENSG00000128335.9): −4.687 | log2FoldChange (APOL3 ENSG00000128284.15): −8.094 | log2FoldChange (APOL4 ENSG00000100336.13): −5.675 | log2FoldChange (APOL6 ENSG00000221963.5): −9.041 | log2FoldChange (CLIC2 ENSG00000155962.8): −6.265 | log2FoldChange (CXorf38 ENSG00000185753.8): −0.7658 | log2FoldChange (ENSG00000225008.1 (symbol NA)): −4.425 | log2FoldChange (ENSG00000231010.1 (symbol NA)): −1.645 | log2FoldChange (FAM122C ENSG00000156500.10): −0.7463 | log2FoldChange (SERHL2 ENSG00000183569.13): −2.334 | log2FoldChange (SERTM2 ENSG00000260802.1): −2.158
